Measured values reported in the supplement of paper PMC6411743.
± gives the standard deviation of the averaged measurements. The list shows a part of the results.

By UniProt entry, the sequences of proteins in these tests, tags left out. Where a name states a change or a piece, a line headed by the entry shows the natural chain unless it says otherwise.
UniProt P52657, whole entry: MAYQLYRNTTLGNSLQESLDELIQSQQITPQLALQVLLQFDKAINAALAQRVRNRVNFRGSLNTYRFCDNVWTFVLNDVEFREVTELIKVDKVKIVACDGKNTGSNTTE
UniProt Q13555: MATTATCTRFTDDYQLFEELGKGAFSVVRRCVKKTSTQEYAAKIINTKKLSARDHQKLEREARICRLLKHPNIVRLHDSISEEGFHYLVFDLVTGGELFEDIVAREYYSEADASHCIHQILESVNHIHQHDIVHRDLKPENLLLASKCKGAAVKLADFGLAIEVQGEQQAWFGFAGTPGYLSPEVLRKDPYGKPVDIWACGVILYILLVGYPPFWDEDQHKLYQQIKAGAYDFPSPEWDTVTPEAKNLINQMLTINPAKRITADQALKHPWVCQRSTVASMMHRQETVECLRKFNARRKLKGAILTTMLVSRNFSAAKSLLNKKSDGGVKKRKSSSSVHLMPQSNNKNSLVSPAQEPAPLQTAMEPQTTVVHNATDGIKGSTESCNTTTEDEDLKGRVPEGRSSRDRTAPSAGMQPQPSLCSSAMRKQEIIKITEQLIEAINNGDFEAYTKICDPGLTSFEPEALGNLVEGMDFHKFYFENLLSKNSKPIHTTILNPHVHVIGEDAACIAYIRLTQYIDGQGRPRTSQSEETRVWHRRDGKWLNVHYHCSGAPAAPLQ
UniProt Q6IBW4: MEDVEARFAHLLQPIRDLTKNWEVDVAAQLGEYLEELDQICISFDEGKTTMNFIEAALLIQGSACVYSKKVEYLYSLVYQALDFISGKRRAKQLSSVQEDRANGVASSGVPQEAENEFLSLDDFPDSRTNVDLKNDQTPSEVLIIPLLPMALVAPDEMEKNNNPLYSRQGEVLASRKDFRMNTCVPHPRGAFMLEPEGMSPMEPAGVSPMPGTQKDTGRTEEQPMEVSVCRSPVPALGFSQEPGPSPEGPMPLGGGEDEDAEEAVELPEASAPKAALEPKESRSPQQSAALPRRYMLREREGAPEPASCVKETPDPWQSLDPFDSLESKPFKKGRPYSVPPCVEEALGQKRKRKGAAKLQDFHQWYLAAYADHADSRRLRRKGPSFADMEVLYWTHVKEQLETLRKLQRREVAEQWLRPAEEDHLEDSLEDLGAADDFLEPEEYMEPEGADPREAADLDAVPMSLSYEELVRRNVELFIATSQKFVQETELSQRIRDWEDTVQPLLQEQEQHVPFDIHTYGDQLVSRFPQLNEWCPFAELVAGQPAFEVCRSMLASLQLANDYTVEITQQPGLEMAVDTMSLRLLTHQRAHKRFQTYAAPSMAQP
UniProt P38571: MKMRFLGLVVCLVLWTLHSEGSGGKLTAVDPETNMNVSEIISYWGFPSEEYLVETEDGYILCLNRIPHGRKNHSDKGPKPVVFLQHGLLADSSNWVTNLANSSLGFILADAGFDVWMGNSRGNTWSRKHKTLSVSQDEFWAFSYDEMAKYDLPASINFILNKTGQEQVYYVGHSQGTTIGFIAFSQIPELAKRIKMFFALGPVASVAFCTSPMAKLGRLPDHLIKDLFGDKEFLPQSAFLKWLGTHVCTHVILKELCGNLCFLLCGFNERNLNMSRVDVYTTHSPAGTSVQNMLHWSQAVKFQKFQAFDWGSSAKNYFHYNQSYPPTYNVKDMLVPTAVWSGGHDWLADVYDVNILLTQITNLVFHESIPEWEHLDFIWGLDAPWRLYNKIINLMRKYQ
UniProt Q8N954: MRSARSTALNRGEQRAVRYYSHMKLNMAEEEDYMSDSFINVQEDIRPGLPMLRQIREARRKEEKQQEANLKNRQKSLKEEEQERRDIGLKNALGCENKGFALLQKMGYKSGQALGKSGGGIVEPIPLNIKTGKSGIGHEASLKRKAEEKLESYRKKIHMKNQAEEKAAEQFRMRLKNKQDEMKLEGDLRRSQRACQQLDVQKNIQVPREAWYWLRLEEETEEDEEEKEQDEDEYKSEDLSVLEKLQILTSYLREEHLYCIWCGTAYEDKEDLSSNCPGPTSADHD
UniProt Q6AI08: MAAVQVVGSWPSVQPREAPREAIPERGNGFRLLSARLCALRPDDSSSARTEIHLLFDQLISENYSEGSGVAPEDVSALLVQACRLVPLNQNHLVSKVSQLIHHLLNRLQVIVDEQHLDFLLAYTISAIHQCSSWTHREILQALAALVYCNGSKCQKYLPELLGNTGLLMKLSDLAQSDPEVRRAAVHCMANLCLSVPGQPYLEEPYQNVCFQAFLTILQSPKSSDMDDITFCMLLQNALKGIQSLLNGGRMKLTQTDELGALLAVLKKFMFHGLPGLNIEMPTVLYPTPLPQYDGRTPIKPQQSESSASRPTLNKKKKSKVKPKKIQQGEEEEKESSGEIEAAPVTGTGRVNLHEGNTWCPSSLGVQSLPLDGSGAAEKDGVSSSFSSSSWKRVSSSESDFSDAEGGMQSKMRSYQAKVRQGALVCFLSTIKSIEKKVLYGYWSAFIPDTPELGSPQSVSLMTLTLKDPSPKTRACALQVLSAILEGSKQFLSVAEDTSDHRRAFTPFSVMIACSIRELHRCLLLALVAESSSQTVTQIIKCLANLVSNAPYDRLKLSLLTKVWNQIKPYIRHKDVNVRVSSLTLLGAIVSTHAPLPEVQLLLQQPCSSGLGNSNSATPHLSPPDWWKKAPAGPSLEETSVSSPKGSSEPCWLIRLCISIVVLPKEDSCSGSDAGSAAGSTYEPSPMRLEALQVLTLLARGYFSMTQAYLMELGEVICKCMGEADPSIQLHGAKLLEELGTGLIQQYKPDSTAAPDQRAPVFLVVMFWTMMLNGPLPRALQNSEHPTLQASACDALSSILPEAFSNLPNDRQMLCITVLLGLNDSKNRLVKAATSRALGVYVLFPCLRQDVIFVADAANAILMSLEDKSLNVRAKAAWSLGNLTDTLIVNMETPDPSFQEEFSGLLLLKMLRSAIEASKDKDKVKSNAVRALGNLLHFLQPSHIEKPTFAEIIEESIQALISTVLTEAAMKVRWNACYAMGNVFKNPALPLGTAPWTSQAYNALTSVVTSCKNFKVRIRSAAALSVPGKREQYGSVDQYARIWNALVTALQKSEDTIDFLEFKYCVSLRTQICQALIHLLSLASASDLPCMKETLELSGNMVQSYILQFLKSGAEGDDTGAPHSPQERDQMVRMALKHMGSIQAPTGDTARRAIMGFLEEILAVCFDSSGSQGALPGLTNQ
UniProt Q8IZP0: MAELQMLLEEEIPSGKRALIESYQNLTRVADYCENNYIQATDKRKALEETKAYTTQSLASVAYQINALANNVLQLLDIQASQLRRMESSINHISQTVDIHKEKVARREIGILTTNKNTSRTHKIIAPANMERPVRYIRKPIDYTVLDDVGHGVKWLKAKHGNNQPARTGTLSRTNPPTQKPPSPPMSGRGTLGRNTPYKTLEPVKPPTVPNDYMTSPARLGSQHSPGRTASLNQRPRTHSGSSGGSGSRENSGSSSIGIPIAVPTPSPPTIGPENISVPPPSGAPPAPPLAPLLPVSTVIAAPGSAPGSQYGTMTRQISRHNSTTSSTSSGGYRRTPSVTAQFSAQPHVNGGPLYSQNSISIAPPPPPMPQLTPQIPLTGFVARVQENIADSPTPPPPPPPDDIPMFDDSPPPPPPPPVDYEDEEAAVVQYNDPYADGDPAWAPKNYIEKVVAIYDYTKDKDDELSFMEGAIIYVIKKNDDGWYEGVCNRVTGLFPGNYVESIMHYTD
UniProt Q5JTV8: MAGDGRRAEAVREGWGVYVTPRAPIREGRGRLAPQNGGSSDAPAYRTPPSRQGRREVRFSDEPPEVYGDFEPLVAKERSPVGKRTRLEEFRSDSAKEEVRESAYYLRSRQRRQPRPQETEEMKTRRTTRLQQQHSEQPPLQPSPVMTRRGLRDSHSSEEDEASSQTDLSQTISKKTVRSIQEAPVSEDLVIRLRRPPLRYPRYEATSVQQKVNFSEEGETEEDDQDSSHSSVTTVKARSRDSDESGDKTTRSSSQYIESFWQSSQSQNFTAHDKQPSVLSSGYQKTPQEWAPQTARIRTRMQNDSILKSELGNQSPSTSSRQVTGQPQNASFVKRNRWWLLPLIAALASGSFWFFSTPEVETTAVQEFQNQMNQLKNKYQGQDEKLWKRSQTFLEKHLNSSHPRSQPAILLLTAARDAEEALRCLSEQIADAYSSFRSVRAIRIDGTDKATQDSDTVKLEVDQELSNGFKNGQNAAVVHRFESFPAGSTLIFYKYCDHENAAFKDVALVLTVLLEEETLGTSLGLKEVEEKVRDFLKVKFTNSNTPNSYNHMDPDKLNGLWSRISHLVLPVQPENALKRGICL
UniProt O43837: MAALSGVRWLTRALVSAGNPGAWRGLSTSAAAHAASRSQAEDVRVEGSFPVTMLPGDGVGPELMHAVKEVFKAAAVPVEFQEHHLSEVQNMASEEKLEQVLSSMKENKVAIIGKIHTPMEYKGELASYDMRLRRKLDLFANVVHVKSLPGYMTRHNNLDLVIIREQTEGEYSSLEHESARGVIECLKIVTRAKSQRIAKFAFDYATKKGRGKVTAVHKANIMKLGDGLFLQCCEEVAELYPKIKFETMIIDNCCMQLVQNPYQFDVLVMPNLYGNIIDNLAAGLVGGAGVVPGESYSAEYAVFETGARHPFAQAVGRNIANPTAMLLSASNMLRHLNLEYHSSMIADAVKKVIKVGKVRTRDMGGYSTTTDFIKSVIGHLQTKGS
UniProt Q9UPN6: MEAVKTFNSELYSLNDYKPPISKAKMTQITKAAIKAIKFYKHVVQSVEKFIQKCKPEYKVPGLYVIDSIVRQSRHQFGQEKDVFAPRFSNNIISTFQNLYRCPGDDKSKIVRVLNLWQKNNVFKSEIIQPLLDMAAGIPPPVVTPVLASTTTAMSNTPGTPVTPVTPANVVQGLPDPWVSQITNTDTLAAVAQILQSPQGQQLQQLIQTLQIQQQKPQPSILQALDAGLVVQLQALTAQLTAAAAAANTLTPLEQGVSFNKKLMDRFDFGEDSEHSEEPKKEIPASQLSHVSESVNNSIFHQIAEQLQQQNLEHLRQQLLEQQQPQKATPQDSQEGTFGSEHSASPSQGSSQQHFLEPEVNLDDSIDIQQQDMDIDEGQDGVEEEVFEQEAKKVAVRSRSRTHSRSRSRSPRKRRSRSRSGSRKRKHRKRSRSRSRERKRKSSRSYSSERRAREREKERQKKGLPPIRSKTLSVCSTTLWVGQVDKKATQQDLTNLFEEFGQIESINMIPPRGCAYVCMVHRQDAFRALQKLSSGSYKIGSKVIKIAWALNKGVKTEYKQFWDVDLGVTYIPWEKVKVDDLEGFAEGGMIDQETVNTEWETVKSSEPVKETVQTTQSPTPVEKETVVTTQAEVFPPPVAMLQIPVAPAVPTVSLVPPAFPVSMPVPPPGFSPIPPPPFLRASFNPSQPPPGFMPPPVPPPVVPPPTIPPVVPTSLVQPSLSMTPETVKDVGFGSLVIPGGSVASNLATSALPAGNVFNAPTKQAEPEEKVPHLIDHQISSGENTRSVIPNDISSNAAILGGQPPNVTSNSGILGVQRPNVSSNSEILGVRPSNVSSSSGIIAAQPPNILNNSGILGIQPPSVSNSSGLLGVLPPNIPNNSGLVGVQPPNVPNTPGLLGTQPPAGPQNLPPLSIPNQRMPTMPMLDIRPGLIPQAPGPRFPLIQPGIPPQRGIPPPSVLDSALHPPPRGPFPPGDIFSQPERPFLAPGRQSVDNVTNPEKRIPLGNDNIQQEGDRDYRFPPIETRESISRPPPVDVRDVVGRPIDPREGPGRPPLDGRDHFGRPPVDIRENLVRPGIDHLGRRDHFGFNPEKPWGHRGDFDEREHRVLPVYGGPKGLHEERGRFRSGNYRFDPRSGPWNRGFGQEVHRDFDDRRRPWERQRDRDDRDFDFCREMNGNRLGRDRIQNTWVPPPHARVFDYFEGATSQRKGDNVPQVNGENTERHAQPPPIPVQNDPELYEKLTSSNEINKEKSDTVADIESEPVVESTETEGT
UniProt A0MZ66, whole entry: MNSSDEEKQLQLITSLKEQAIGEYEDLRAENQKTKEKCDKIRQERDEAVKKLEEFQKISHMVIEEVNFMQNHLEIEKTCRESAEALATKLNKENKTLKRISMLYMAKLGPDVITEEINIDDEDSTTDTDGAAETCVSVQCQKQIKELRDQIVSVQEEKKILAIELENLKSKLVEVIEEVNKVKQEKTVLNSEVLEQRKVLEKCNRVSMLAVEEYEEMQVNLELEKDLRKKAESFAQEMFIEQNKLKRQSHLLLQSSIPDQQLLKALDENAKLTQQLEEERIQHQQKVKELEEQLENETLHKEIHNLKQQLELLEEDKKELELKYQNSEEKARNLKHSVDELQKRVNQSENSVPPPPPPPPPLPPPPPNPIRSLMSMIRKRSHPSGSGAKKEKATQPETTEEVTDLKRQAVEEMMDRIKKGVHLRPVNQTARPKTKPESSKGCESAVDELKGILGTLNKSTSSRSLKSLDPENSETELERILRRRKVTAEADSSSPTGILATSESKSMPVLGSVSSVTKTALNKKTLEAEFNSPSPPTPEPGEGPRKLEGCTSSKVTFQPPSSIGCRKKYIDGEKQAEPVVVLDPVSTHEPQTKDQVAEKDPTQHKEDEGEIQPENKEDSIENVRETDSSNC

Compound: Nc1nc2c(ncn2[C@@H]2O[C@H](COP(=O)(O)OP(=O)(O)OP(=O)(O)O)[C@@H](O)[C@H]2O)c(=O)[nH]1 [guanosine triphosphate]
Test: NP40-soluble protein abundance relative to vehicle (solubility fold change) (ratio); higher = more soluble protein in presence of GTP
How it was run: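 Each value is a fold change relative to the detergent-processed vehicle, calculated per replicate from vsn-normalised intensities. Jurkat crude lysate received eight concentrations (0.1 to 10 mM) for 10 min at room temperature and 3 min at 37 °C, then was solubilised in 0.8% NP40 with benzonase (60 min, 4 °C). The ultracentrifuged supernatant was TMT-labelled and run by LC-MS/MS in three independent experiments.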

Target	NP40-soluble protein abundance (concentration: 0.1mM)	NP40-soluble protein abundance (concentration: 0.5mM)	NP40-soluble protein abundance (concentration: 1mM)	NP40-soluble protein abundance (concentration: 2mM)	NP40-soluble protein abundance (concentration: 4mM)	NP40-soluble protein abundance (concentration: 6mM)	NP40-soluble protein abundance (concentration: 8mM)	NP40-soluble protein abundance (concentration: 10mM)
A0A0A0MTC5|A0A0A0MTD1|E7EPX0 and related entries (UniProt Q9NUL3)	1.04 ± 0.025	1.07 ± 0.016	1.11 ± 0.011	1.18 ± 0.063	1.33 ± 0.11	1.36 ± 0.11	1.48 ± 0.14	1.5 ± 0.18
A0A0B4J1Z5|P52657 (UniProt P52657)	0.915 ± 0.12	0.821 ± 0.12	1 ± 0.12	1.01 ± 0.1	1 ± 0.066	0.968 ± 0.084	0.933 ± 0.14	1.04 ± 0.15
A0A0A0MS52|Q13555-2|Q13555-8|Q13555-9 (UniProt Q13555)	0.955 ± 0.044	0.951 ± 0.064	0.932 ± 0.097	0.93 ± 0.1	0.992 ± 0.11	0.987 ± 0.17	0.994 ± 0.13	0.99 ± 0.12
A6NCE7 and related entries (UniProt Q9GZQ8+H3BTL1+A6NCE7)	0.996 ± 0.022	1.02 ± 0.062	0.976 ± 0.053	0.917 ± 0.073	0.894 ± 0.078	0.926 ± 0.094	0.918 ± 0.072	0.901 ± 0.088
A0A0A6YYG7|Q6IBW4 and related entries (UniProt Q6IBW4)	1.04 ± 0.059	1.08 ± 0.06	1.14 ± 0.022	1.1 ± 0.045	1.15 ± 0.028	1.12 ± 0.034	1.2 ± 0.053	1.16 ± 0.11
A0A0A0MT32|P38571 and related entries (UniProt P38571)	0.943 ± 0.017	0.999 ± 0.066	0.934 ± 0.021	0.928 ± 0.013	0.885 ± 0.035	0.899 ± 0.015	0.981 ± 0.034	0.914 ± 0.0077
A0A0C4DGX4|Q13616 (UniProt Q13616)	1.05 ± 0.041	1.07 ± 0.055	0.984 ± 0.044	0.974 ± 0.067	0.957 ± 0.049	0.98 ± 0.061	0.97 ± 0.035	0.918 ± 0.055
A0A0A0MSF9|Q8N954 (UniProt Q8N954)	0.954 ± 0.04	0.893 ± 0.048	1.01 ± 0.017	1.07 ± 0.044	1.18 ± 0.062	1.2 ± 0.039	1.24 ± 0.13	1.31 ± 0.14
A0A087WYF7|Q6UXV4 and related entries (UniProt Q6UXV4)	0.979 ± 0.16	0.938 ± 0.1	0.917 ± 0.083	0.95 ± 0.021	0.975 ± 0.053	0.928 ± 0.045	0.94 ± 0.1	0.922 ± 0.07
A0A087WYB4|Q9UJZ1 (UniProt Q9UJZ1)	0.917 ± 0.061	0.972 ± 0.053	1.01 ± 0.026	1.02 ± 0.048	0.999 ± 0.091	1.04 ± 0.07	1.05 ± 0.1	1.05 ± 0.13
A0A087WXP7|Q9H2P9 and related entries (UniProt Q9H2P9)	1.02 ± 0.076	0.973 ± 0.095	0.95 ± 0.03	0.936 ± 0.038	0.898 ± 0.05	0.909 ± 0.034	0.905 ± 0.032	0.864 ± 0.034
UniProt A2RTX5 and related entries	1.175 ± 0.01	1.26 ± 0.11	1.25 ± 0.11	1.31 ± 0.07	1.25 ± 0.053	1.31 ± 0.16	1.31 ± 0.086	1.24 ± 0.17
A0A087WXZ7|K7EIX2 and related entries (UniProt Q6AI08)	0.969 ± 0.05	1.01 ± 0.024	0.961 ± 0.069	1.04 ± 0.052	1.02 ± 0.076	1.07 ± 0.018	1.04 ± 0.02	1.14 ± 0.054
A0A087X0W8|Q04206 and related entries (UniProt Q04206)	1 ± 0.022	0.9839 ± 0.0077	0.952 ± 0.031	0.901 ± 0.029	0.905 ± 0.036	0.898 ± 0.04	0.919 ± 0.0098	0.89 ± 0.027
A0A087X211|Q8TCG1 and related entries (UniProt Q8TCG1)	0.986 ± 0.018	1.01 ± 0.025	1 ± 0.012	0.936 ± 0.031	0.947 ± 0.037	0.959 ± 0.038	0.993 ± 0.034	0.963 ± 0.016
A0A0D9SGJ6|J3KQV8 and related entries (UniProt O43426)	1.1 ± 0.041	1.05 ± 0.095	0.982 ± 0.044	0.994 ± 0.036	0.986 ± 0.055	0.993 ± 0.017	0.945 ± 0.023	0.943 ± 0.013
A0A0A0MRT6|B6VEX4 and related entries (UniProt Q8IZP0)	0.915 ± 0.016	0.869 ± 0.051	1.04 ± 0.032	1.05 ± 0.037	1.06 ± 0.013	0.994 ± 0.02	0.971 ± 0.025	1.04 ± 0.072
A0A0A0MSK5|Q5JTV8 and related entries (UniProt Q5JTV8)	0.895 ± 0.045	0.899 ± 0.062	0.91 ± 0.066	0.893 ± 0.085	0.867 ± 0.079	0.899 ± 0.094	0.878 ± 0.058	0.893 ± 0.087
A0A087WZN1|O43837 (UniProt O43837)	0.977 ± 0.037	1.02 ± 0.047	0.91 ± 0.039	0.925 ± 0.028	0.898 ± 0.024	0.893 ± 0.033	0.861 ± 0.048	0.87 ± 0.033
A0A0A0MRC4|A0A0A0MSK4|Q86YR5 and related entries (UniProt Q86YR5)	0.937 ± 0.015	1.02 ± 0.088	0.942 ± 0.018	0.947 ± 0.041	0.876 ± 0.045	0.919 ± 0.064	0.9032 ± 0.0076	0.95 ± 0.074
A0A0A0MT33|Q9UPN6 and related entries (UniProt Q9UPN6)	1.05 ± 0.067	1.04 ± 0.091	1.08 ± 0.069	1.09 ± 0.069	1.1 ± 0.029	1.09 ± 0.067	1.13 ± 0.095	1.11 ± 0.059
A0A0A0MSZ4|A0A0A0MT64|A0A0A0MTR6|A0A0C4DFN8|J3QQX3 and related entries (UniProt P22570)	1.05 ± 0.027	1.01 ± 0.031	1.01 ± 0.057	0.974 ± 0.049	1.01 ± 0.1	0.992 ± 0.082	0.995 ± 0.081	0.916 ± 0.097
A0A0A0MTS7|Q8WZ42-12 (UniProt Q8WZ42)	1.06 ± 0.045	1.02 ± 0.074	0.994 ± 0.029	0.969 ± 0.022	0.951 ± 0.063	0.982 ± 0.055	0.978 ± 0.058	0.922 ± 0.068
UniProt A0MZ66 and related entries	0.905 ± 0.02	0.898 ± 0.068	0.942 ± 0.038	0.931 ± 0.078	0.912 ± 0.019	0.906 ± 0.057	0.921 ± 0.055	0.946 ± 0.074
A0A0U1RRM6|Q8N8S7 and related entries (UniProt Q8N8S7)	1.14 ± 0.12	1.08 ± 0.12	1.13 ± 0.094	1.05 ± 0.22	1.04 ± 0.058	0.995 ± 0.13	1.01 ± 0.11	1.01 ± 0.12

An excerpt of these results, comma-delimited:
Target,NP40-soluble protein abundance (concentration: 0.1mM),NP40-soluble protein abundance (concentration: 0.5mM),NP40-soluble protein abundance (concentration: 1mM),NP40-soluble protein abundance (concentration: 2mM),NP40-soluble protein abundance (concentration: 4mM),NP40-soluble protein abundance (concentration: 6mM),NP40-soluble protein abundance (concentration: 8mM),NP40-soluble protein abundance (concentration: 10mM)
A0A0A0MS52|Q13555-2|Q13555-8|Q13555-9 (UniProt Q13555),0.955 ± 0.044,0.951 ± 0.064,0.932 ± 0.097,0.93 ± 0.1,0.992 ± 0.11,0.987 ± 0.17,0.994 ± 0.13,0.99 ± 0.12
A6NCE7 and related entries (UniProt Q9GZQ8+H3BTL1+A6NCE7),0.996 ± 0.022,1.02 ± 0.062,0.976 ± 0.053,0.917 ± 0.073,0.894 ± 0.078,0.926 ± 0.094,0.918 ± 0.072,0.901 ± 0.088
A0A0A6YYG7|Q6IBW4 and related entries (UniProt Q6IBW4),1.04 ± 0.059,1.08 ± 0.06,1.14 ± 0.022,1.1 ± 0.045,1.15 ± 0.028,1.12 ± 0.034,1.2 ± 0.053,1.16 ± 0.11
A0A0A0MT32|P38571 and related entries (UniProt P38571),0.943 ± 0.017,0.999 ± 0.066,0.934 ± 0.021,0.928 ± 0.013,0.885 ± 0.035,0.899 ± 0.015,0.981 ± 0.034,0.914 ± 0.0077
